Library screen at single concentrations

The chains behind the UniProt entries cited, without tags or fusion partners.
UniProt P9WFT3, whole entry: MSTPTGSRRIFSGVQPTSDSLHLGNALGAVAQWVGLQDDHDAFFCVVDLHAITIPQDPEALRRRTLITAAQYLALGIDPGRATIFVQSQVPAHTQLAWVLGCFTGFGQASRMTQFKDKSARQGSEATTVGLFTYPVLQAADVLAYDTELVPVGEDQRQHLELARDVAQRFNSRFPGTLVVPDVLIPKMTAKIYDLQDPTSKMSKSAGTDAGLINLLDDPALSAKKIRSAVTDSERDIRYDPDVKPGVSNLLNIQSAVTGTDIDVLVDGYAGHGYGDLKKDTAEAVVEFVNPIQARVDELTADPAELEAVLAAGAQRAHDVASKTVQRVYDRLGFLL

Measurements from “University of Dundee, Small-Polar-MMV Screening Library” (2021), ChEMBL document CHEMBL3988442.

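Tryptophan-tRNA ligase, Mycobacterium tuberculosis (UniProt P9WFT3). Enzyme assay of tryptophanyl-tRNA synthetase; the read-out is not stated. Concentration: 10 µM. Higher most likely means stronger inhibition; the record gives no direction and few retests gave an IC50. Of about 65,000 compounds tested this way, about 64 (0.098%) reached 50% or more in at least one test.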

Results are given as percent effect.
The record does not define 0% and 100%; most values in the screen are far below 50% and negative numbers occur (in some assays of this library far below -100).
This is an unselected part of the compounds tested.

CCN1CCNC(=O)C12CCN(S(=O)(=O)c1ccccc1)CC2 gave -2.183%.
Cn1ccc2c(cnc3nc(-c4ccncc4)nn32)c1=O gave 1.075%.
CCc1ccc(C(=O)Nc2cc(N3CCNC3=O)ccc2Cl)o1 gave -3.372%.
CC(=O)N[C@@H]1CN(Cc2ccc(F)cc2F)C[C@H]1c1ccc(C)o1 gave 2.527%.
CC(C)c1cc(C(=O)N2CCNCC2C(=O)NCc2ccncc2)on1 (stereo not given) gave 2.641%.
c1cc(CNCC2CNc3ccnn3C2)cc(Cn2cccn2)c1 (stereo not given) gave 2.726%.
CC(Cn1cccn1)NCC(=O)N(C)Cc1ccsc1 (stereo not given) gave -2.583%.
CC(C)c1nnc2n1CCN(CC(=O)N1CCc3sccc3C1)C2 gave 2.825%.
Cc1cc(CNc2nccc(N)n2)c2[nH]c(C)c(C)c2c1 gave 1.771%.
CC(C)NC(=O)COc1cccc(-c2nc(C(C)C)no2)c1 gave 11.7%.
c1cncc(CN2CCC3(COCCN(C4CCOCC4)C3)C2)c1 (stereo not given) gave 1.569%.
CC(C)=CCC1(C(=O)O)CCCN(c2ccnc(N)n2)C1 (stereo not given) gave 7.53%.
CCCNC(=O)Cn1nc(C(C)C)c2cnn(C(C)(C)C)c2c1=O gave -1.639%.
Cc1nc(Cn2c3c(ccc2=O)CCN(CC2CC2)CC3)cs1 gave -6.135%.
CCC(O)CN(CC(=O)NC(=O)NC1CC1)c1ccccc1 (stereo not given) gave -1.383%.
O=C(NCCc1ccccc1)N1CCC(C2OCCO2)CC1 gave -10.15%.
CC(C)CC(NC(=O)c1cnn(C)c1)C(=O)Nc1cc[nH]n1 (stereo not given) gave 0.1487%.
Cn1cc2ncn(C3CCN(c4ccccc4F)CC3)c(=O)c2n1 gave 4.059%.
OC(CN1CCOCC1)c1ccc(OC(F)(F)F)cc1 (stereo not given) gave 0.3912%.
Clc1ccccc1C1(c2ccnc(CC3CC3)n2)CCNCC1 gave 4.557%.
O=C1CC2(CCCCN2C(=O)c2ccccc2)CN1CC1CC1 (stereo not given) gave 0.995%.
c1ccc(Cc2cncc(C3CCCN3C3CCOCC3)n2)cc1 (stereo not given) gave -2.211%.
Cc1nccc(-c2ccccc2)c1C(=O)N1CCC2(CN(C)C(=O)O2)C1 (stereo not given) gave -2.129%.
Cc1cc(C(=O)N2CCC(CCC(=O)NCCN(C)C)CC2)ccc1O gave -1.069%.
Cc1noc(C)c1CN1CC2(CCN(C(=O)c3cscn3)CC2)CC1=O gave -1.077%.
CSc1c[nH]nc1NS(=O)(=O)c1cc(F)ccc1Cl gave -3.367%.
Cc1cnn(CC2CCCN2C(=O)c2c(C)noc2C(C)C)c1 (stereo not given) gave 17.5%.
Cc1ccc(C(=O)N2CCC3(CCC(=O)N(CCCO)C3)CC2)c(O)c1 gave 0.7638%.
CC(C)N(C)C(=O)C1=NOC2(CCN(C(=O)NCc3cccnc3)C2)C1 (stereo not given) gave 0%.
O=c1[nH]c2ncccc2n1C1CCCCC1 gave 1.001%.
Cn1nc(C(=O)N2CCCCC2c2nc3cc(F)ccc3[nH]2)ccc1=O (stereo not given) gave 18.2%.
Cc1cc(C)c(CNC(=O)NC(C)c2ccc3c(c2)CCC3)c(=O)[nH]1 (stereo not given) gave 15.17%.
O=C(COCc1ccccc1Cl)N1CCCC(n2ccnc2)C1 (stereo not given) gave 13.46%.
CCCc1nc(C(C)(C)NC(=O)c2ccnn2C)no1 gave -1.503%.
c1cc(N2CCC(CN3CCOCC3)CC2)c2sccc2n1 gave 2.413%.
COC(=O)CCSc1nncn1-c1ccc(OC)nc1 gave 2.824%.
Cc1cnn(C2CCCN(C(=O)COc3ccc(C(N)=O)cc3)C2)c1 (stereo not given) gave 2.685%.
O=C(NC[C@H]1OC[C@@H](NCc2ccc(F)cc2)[C@@H]1O)c1ccncc1 gave 1.907%.
COc1c(Br)cc(Cl)cc1NCc1c(C)noc1C gave 7.74%.
O=C(CCc1cccc(F)c1F)N1CCN(Cc2ccco2)CC1 gave 1.006%.
CCc1nc2n(n1)CC(NCCc1cccs1)CC2 (stereo not given) gave -0.07788%.
O=C(NCC1(O)COCCN(Cc2cccc(O)c2)C1)c1cnccn1 (stereo not given) gave -3.329%.
O=C(Nc1ccnc(OC2CCOC2)c1)c1cccs1 (stereo not given) gave -3.616%.
Cc1ccccc1CN1C[C@@H]2OCC(=O)N(CC(N)=O)[C@@H]2C1 gave -2.365%.
CC(C)N(C)Cc1n[nH]c2c1CCN(C(=O)c1ccc[nH]1)C2 gave -1.237%.
CCc1nc(C2CCCN2C(=O)c2c[nH]c(C)n2)no1 (stereo not given) gave 3.801%.
NC(=O)c1cc(NC(=O)NCCc2cc(F)cc(F)c2)ccc1F gave 3.888%.
O=C(CN1CCOc2ccc(Cl)cc21)NCCCn1cccn1 gave 5.649%.
O=C(NC1CCCN(c2ccc(OC(F)F)cc2)C1)c1cnccn1 (stereo not given) gave -1.548%.
CC(C)NC(=O)[C@@H]1CN(C(=O)C2CC2)C[C@]12Cc1ccccc1C(=O)N2 gave 0.3958%.
COCCC(=O)N1CCOCC2(CCN(Cc3cccs3)C2)C1 (stereo not given) gave -3.812%.
Cc1ccc(CN(C)C(C(=O)O)c2ccc3c(c2)OCO3)o1 (stereo not given) gave 0.3132%.
CN(C)CCCNC(=O)c1cnc(Cc2ccc(F)cc2)s1 gave -0.7965%.
CO[C@@H](C(=O)NC1CCOCC1)c1ccccc1 gave -2.082%.
CCOCCCNC(=O)C1(C)CCC(=O)N1Cc1ccccc1F (stereo not given) gave 5.598%.

6 of the entries, repeated:

{"compound": "COC(=O)CCSc1nncn1-c1ccc(OC)nc1", "percent effect": 2.824}
{"compound": "Cc1cc(C(=O)N2CCC(CCC(=O)NCCN(C)C)CC2)ccc1O", "percent effect": -1.069}
{"compound": "Cn1nc(C(=O)N2CCCCC2c2nc3cc(F)ccc3[nH]2)ccc1=O", "stereo": "stereo not given", "percent effect": 18.2}
{"compound": "CC(C)NC(=O)[C@@H]1CN(C(=O)C2CC2)C[C@]12Cc1ccccc1C(=O)N2", "percent effect": 0.3958}
{"compound": "CCc1nc(C2CCCN2C(=O)c2c[nH]c(C)n2)no1", "stereo": "stereo not given", "percent effect": 3.801}
{"compound": "Clc1ccccc1C1(c2ccnc(CC3CC3)n2)CCNCC1", "percent effect": 4.557}